Article PMC8213057, “Targeting ALK2: An Open Science Approach to Developing Therapeutics for the Treatment of Diffuse Intrinsic Pontine Glioma” (Journal of Medicinal Chemistry, 2020)

By UniProt entry, the sequences of proteins in these tests, tags left out. Where a name states a change or a piece, a line headed by the entry shows the natural chain unless it says otherwise. Residues count along the entry.
UniProt Q9H093: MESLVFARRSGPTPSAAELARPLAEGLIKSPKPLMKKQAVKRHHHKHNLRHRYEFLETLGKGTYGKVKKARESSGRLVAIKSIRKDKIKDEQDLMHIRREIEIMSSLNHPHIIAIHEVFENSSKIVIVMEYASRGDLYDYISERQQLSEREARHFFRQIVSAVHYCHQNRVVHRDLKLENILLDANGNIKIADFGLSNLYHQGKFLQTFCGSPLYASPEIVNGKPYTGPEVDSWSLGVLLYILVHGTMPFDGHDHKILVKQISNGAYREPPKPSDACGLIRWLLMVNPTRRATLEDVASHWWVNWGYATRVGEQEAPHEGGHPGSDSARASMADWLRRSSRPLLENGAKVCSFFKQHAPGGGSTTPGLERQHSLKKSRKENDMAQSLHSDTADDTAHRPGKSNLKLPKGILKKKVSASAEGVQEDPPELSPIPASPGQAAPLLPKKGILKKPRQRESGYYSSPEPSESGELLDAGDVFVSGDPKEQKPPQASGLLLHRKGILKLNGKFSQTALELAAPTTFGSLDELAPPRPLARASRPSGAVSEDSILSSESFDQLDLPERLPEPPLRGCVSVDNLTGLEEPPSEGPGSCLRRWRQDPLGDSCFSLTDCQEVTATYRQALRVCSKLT
UniProt Q96BR1: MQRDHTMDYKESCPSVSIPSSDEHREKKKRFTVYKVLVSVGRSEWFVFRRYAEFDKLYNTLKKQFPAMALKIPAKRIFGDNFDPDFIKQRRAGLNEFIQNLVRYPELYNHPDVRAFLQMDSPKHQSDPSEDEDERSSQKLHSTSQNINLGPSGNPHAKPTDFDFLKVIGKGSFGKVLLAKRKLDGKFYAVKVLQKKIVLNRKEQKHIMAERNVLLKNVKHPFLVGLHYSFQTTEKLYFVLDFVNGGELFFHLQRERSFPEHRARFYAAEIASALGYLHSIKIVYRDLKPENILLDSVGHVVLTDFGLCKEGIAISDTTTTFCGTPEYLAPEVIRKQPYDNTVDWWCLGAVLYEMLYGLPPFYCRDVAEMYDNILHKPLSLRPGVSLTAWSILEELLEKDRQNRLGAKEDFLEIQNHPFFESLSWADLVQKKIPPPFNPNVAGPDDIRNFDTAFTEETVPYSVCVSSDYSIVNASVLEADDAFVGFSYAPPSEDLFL
UniProt P04629, 33-796: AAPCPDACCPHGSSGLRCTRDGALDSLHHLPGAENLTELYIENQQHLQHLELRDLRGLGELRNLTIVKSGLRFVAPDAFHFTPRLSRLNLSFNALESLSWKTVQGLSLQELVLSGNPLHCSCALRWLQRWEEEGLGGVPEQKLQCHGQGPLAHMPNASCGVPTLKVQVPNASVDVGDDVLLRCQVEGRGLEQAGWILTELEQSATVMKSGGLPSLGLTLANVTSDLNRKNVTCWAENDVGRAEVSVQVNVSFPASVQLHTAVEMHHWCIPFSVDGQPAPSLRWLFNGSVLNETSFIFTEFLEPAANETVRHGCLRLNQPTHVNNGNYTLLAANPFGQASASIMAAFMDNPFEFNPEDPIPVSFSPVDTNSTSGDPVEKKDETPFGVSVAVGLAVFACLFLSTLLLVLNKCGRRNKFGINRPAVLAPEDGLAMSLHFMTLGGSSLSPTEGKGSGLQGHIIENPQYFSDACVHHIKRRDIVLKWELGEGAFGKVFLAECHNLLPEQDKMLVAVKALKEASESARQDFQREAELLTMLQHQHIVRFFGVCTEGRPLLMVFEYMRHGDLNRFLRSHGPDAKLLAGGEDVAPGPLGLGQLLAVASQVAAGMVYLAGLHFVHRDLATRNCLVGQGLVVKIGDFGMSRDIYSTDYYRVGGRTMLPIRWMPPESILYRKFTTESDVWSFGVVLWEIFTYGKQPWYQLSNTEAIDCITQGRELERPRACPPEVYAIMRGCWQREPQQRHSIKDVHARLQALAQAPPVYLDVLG
UniProt O14920: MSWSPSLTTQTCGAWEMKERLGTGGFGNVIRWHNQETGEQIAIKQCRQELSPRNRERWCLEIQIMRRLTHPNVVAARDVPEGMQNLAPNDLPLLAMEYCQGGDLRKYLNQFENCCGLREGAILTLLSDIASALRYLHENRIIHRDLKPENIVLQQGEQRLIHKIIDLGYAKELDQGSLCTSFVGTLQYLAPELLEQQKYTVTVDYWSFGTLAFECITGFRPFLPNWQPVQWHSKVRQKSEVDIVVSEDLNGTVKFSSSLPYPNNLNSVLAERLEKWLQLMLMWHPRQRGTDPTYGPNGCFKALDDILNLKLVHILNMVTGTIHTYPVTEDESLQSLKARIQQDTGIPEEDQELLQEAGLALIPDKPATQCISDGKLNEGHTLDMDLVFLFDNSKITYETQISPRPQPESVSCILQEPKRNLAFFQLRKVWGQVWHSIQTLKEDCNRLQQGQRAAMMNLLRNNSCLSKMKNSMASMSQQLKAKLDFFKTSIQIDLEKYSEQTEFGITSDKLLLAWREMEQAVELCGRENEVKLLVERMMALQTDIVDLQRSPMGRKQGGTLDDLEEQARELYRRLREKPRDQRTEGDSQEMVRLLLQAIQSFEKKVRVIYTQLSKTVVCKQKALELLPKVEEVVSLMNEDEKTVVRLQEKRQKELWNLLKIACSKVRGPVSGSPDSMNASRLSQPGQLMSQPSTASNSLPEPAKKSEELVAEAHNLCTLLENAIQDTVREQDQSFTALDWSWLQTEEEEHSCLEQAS
UniProt P49137, whole entry: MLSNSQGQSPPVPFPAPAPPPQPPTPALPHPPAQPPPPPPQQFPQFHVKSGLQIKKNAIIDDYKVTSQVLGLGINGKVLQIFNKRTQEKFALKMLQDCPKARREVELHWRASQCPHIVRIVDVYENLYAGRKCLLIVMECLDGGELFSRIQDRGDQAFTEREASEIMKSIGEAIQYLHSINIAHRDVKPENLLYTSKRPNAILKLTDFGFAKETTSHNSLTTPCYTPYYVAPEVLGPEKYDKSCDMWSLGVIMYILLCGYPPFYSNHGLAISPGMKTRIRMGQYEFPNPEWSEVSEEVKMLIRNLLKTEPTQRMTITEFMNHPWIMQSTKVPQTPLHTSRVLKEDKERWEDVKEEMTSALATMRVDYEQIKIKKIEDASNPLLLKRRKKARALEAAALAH
UniProt Q8WXR4: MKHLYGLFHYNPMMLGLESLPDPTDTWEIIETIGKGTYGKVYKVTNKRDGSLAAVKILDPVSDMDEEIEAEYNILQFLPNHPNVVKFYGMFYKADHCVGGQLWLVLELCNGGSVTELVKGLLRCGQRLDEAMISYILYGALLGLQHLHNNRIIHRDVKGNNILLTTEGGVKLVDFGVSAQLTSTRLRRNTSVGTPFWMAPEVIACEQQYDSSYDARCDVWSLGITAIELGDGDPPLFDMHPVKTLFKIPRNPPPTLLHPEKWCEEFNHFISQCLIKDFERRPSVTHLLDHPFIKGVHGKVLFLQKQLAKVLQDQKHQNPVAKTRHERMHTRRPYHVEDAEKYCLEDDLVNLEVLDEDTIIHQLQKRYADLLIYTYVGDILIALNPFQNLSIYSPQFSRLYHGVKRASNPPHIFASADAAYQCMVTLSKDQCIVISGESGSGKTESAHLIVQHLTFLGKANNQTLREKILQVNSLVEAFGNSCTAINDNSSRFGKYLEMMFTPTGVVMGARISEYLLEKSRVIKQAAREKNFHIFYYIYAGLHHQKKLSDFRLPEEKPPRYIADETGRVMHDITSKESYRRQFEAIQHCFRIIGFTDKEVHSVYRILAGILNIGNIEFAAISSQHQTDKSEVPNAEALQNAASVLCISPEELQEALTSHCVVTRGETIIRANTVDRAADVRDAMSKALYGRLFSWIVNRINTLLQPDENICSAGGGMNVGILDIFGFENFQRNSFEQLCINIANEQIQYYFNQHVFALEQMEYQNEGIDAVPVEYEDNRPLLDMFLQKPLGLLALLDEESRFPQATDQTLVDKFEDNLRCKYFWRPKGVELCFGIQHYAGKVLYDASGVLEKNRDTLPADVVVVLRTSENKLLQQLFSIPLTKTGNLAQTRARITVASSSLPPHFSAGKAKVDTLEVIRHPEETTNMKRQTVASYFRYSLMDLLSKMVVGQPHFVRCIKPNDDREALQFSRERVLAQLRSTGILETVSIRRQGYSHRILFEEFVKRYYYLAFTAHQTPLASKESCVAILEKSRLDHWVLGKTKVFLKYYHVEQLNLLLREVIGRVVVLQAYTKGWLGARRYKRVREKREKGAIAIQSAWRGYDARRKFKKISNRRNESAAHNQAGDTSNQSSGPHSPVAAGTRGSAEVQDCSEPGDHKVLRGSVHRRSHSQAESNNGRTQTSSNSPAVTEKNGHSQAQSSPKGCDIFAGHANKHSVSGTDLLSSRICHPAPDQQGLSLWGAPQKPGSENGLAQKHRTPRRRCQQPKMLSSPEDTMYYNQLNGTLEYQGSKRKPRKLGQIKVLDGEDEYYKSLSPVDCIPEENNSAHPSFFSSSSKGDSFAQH
UniProt Q86SG6: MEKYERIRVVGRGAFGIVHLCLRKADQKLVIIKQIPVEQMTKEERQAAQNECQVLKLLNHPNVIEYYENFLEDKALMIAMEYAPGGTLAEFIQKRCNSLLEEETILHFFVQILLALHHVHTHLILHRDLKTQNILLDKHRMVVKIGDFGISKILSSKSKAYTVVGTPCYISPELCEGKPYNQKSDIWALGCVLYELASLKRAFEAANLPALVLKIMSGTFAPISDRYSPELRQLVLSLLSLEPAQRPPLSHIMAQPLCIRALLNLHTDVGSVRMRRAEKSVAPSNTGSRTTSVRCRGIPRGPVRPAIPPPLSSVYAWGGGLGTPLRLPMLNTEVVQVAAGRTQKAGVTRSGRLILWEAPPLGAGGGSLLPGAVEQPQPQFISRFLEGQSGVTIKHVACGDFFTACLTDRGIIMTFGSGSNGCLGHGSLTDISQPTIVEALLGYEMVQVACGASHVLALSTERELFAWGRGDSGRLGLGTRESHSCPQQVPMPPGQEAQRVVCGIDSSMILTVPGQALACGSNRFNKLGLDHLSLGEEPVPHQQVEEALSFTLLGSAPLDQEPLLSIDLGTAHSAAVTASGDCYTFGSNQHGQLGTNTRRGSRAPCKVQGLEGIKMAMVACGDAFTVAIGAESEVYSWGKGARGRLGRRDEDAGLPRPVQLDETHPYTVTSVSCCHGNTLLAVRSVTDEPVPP
UniProt Q9H422: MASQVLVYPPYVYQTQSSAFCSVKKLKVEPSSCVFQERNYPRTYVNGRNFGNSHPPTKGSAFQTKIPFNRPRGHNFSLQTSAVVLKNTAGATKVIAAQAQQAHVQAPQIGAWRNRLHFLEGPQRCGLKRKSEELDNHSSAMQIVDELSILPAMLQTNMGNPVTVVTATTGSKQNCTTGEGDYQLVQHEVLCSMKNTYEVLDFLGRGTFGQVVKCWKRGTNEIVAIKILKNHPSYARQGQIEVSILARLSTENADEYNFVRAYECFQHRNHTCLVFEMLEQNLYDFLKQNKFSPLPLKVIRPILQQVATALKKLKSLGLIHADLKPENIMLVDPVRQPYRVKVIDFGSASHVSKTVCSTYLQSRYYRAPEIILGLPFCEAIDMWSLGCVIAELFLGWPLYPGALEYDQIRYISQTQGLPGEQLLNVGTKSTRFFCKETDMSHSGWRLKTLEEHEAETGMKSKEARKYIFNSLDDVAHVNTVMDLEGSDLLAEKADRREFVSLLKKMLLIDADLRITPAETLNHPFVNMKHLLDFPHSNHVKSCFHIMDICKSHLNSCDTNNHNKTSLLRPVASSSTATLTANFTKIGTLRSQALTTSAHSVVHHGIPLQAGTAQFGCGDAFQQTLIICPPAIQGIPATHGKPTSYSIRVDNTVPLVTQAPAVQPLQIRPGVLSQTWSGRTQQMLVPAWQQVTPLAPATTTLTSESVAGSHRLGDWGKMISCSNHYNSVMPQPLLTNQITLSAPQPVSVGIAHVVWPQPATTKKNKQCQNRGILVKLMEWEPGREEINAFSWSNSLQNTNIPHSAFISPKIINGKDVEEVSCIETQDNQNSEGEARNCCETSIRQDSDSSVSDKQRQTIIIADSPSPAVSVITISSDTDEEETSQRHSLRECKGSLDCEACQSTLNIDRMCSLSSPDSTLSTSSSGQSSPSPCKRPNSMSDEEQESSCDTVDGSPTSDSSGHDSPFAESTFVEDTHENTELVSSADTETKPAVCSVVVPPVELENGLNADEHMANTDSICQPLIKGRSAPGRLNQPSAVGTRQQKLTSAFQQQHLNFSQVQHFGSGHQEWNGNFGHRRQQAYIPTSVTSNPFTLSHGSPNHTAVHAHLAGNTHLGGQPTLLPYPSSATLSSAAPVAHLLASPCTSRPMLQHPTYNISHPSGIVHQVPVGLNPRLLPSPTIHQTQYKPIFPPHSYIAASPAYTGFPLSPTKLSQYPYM

Legend:
[1] = target: MYO3A (Homo sapiens, UniProt Q8NEV4); details: 1 μM; Run 1, Run 2
[2] = target: c-Kit (Homo sapiens, UniProt P10721); experiment: biochemical; details: read-out: % enzyme activity, 1 μM; Run 1, Run 2
[3] = target: PKG1a (Homo sapiens, UniProt Q13976); details: 1 μM; Run 1, Run 2
[4] = target: IRAK4 (Homo sapiens, UniProt Q9NWZ3); experiment: biochemical; details: read-out: % enzyme activity, 1 μM; Run 1, Run 2
[5] = target: EPHA6 (Homo sapiens, UniProt Q9UF33); details: 1 μM; Run 1, Run 2
[6] = target: SNARK/NUAK2 (Homo sapiens, UniProt Q9H093); experiment: biochemical; details: read-out: % enzyme activity, 1 μM; Run 1, Run 2
[7] = target: CTK/MATK (Homo sapiens, UniProt P42679); experiment: biochemical; details: read-out: % enzyme activity, 1 μM; Run 1, Run 2
[8] = target: RAF1 (Homo sapiens, UniProt P04049); details: 1 μM; Run 1, Run 2
[9] = target: PAK5 (Homo sapiens, UniProt Q9P286); details: 1 μM; Run 1, Run 2
[10] = target: SGK3/SGKL (Homo sapiens, UniProt Q96BR1); experiment: biochemical; details: read-out: % enzyme activity, 1 μM; Run 1, Run 2
[11] = target: TRKA (Homo sapiens, UniProt P04629); details: 1 μM; Run 1, Run 2
[12] = target: HIPK2 (Homo sapiens, UniProt Q9H2X6); details: 1 μM; Run 1, Run 2
[13] = target: CK1d (Homo sapiens, UniProt P48730); details: 1 μM; Run 1, Run 2
[14] = target: T1, PKCzeta (Homo sapiens, UniProt Q05513); experiment: biochemical; details: read-out: % enzyme activity, 1 μM; Run 1, Run 2
[15] = target: YES/YES1 (Homo sapiens, UniProt P07947); experiment: biochemical; details: read-out: % enzyme activity, 1 μM; Run 1, Run 2
[16] = target: TLK1 (Homo sapiens, UniProt Q9UKI8); experiment: biochemical; details: read-out: % enzyme activity, 1 μM; Run 1, Run 2
[17] = target: IRR/INSRR (Homo sapiens, UniProt P14616); experiment: biochemical; details: read-out: % enzyme activity, 1 μM; Run 1, Run 2
[18] = target: MARK1 (Homo sapiens, UniProt Q9P0L2); experiment: biochemical; details: read-out: % enzyme activity, 1 μM; Run 1, Run 2
[19] = target: CAMK1b (Homo sapiens, UniProt Q6P2M8); details: 1 μM; Run 1, Run 2
[20] = target: PKCb2 (Homo sapiens, UniProt P05771); experiment: biochemical; details: read-out: % enzyme activity, 1 μM; Run 1, Run 2
[21] = target: Aurora C (Homo sapiens, UniProt Q9UQB9); details: 1 μM; Run 1, Run 2
[22] = target: T1, PKCzeta; details: 1 μM; Run 1, Run 2
[23] = target: IKKb/IKBKB (Homo sapiens, UniProt O14920); experiment: biochemical; details: read-out: % enzyme activity, 1 μM; Run 1, Run 2
[24] = target: FGFR3 (Homo sapiens, UniProt P22607); details: 1 μM; Run 1, Run 2
[25] = target: MAPKAPK2 (Homo sapiens, UniProt P49137); experiment: biochemical; details: read-out: % enzyme activity, 1 μM; Run 1, Run 2
[26] = target: ACK1 (Homo sapiens, UniProt Q07912); details: 1 μM; Run 1, Run 2
[27] = target: MLCK/MYLK (Homo sapiens, UniProt Q15746); experiment: biochemical; details: read-out: % enzyme activity, 1 μM; Run 1, Run 2
[28] = target: TYRO3/SKY (Homo sapiens, UniProt Q06418); experiment: biochemical; details: read-out: % enzyme activity, 1 μM; Run 1, Run 2
[29] = target: TRKC (Homo sapiens, UniProt Q16288); details: 1 μM; Run 1, Run 2
[30] = target: MYO3b (Homo sapiens, UniProt Q8WXR4); details: 1 μM; Run 1, Run 2
[31] = target: CDC7/DBF4 (Homo sapiens, UniProt O00311); experiment: biochemical; details: read-out: % enzyme activity, 1 μM; Run 1, Run 2
[32] = target: NEK4 (Homo sapiens, UniProt P51957); details: 1 μM; Run 1, Run 2
[33] = target: DCAMKL1 (Homo sapiens, UniProt O15075); details: 1 μM; Run 1, Run 2
[34] = target: NEK8 (Homo sapiens, UniProt Q86SG6); experiment: biochemical; details: read-out: % enzyme activity, 1 μM; Run 1, Run 2
[35] = target: T2, GRK6 (Homo sapiens, UniProt P43250); experiment: biochemical; details: read-out: % enzyme activity, 1 μM; Run 1, Run 2
[36] = target: p70S6Kb/RPS6KB2 (Homo sapiens, UniProt Q9UBS0); details: 1 μM; Run 1, Run 2
[37] = target: CDK2/cyclin E (Homo sapiens, UniProt P24941); experiment: biochemical; details: read-out: % enzyme activity, 1 μM; Run 1, Run 2
[38] = target: PKCeta (Homo sapiens, UniProt P24723); experiment: biochemical; details: read-out: % enzyme activity, 1 μM; Run 1, Run 2
[39] = target: T2, GRK6; details: 1 μM; Run 1, Run 2
[40] = target: HIPK3 (Homo sapiens, UniProt Q9H422); details: 1 μM; Run 1, Run 2
[41] = target: JAK3 (Homo sapiens, UniProt P52333); experiment: biochemical; details: read-out: % enzyme activity, 1 μM; Run 1, Run 2
[42] = target: ROCK2 (Homo sapiens, UniProt O75116); experiment: biochemical; details: read-out: % enzyme activity, 1 μM; Run 1, Run 2
[43] = target: JAK2 (Homo sapiens, UniProt O60674); details: 1 μM; Run 1, Run 2

With `COc1cc(-c2cncc(-c3ccc(N4CCN(C(C)C)CC4)cc3)c2C)cc(F)c1C(N)=O` [Compound 26b, 2-Fluoro-4-(5-(4-(4-isopropylpiperazin-1-yl)phenyl)-4-methylpyridin-3-yl)-6-methoxybenzamide] the “% enzyme activity” value [1] was 95.48%, the remaining activity at 1 µM [2] was 80.8% and the “% enzyme activity” value [3] was 103.73%. For the same compound, the remaining activity at 1 µM [4] was 88.3%, the “% enzyme activity” value [5] was 101.59% and the remaining activity at 1 µM [6] was 92.7%. For the same compound, the remaining activity at 1 µM [7] was 95.2%, the “% enzyme activity” value [8] was 84.08% and the “% enzyme activity” value [9] was 96.36%. For the same compound, the remaining activity at 1 µM [10] was 86%, the “% enzyme activity” value [11] was 89.07% and the “% enzyme activity” value [12] was 96.91%. The “% enzyme activity” value [13] was 99.03%, the remaining activity at 1 µM [14] was 92.4% and the remaining activity at 1 µM [15] was 100%. For the same compound, the remaining activity at 1 µM [16] was 111%, the remaining activity at 1 µM [17] was 124% and the remaining activity at 1 µM [18] was 92.5%. The “% enzyme activity” value [19] was 99.74%, the remaining activity at 1 µM [20] was 105% and the “% enzyme activity” value [21] was 98.40%. For the same compound, the “% enzyme activity” value [22] was 91.33%, the remaining activity at 1 µM [23] was 109% and the “% enzyme activity” value [24] was 104.10%. The remaining activity at 1 µM [25] was 99.9%, the “% enzyme activity” value [26] was 61.59% and the remaining activity at 1 µM [27] was 106%. For the same compound, the remaining activity at 1 µM [28] was 97.4%, the “% enzyme activity” value [29] was 117.99% and the “% enzyme activity” value [30] was 84.87%. The remaining activity at 1 µM [31] was 98.1%, the “% enzyme activity” value [32] was 99.62% and the “% enzyme activity” value [33] was 83.59%. The remaining activity at 1 µM [34] was 102%, the remaining activity at 1 µM [35] was 104% and the “% enzyme activity” value [36] was 98.03%. For the same compound, the remaining activity at 1 µM [37] was 106%, the remaining activity at 1 µM [38] was 96.8% and the “% enzyme activity” value [39] was 103.22%. For the same compound, the “% enzyme activity” value [40] was 85.10%, the remaining activity at 1 µM [41] was 103% and the remaining activity at 1 µM [42] was 122%. The “% enzyme activity” value [43] was 92.56%.
